# In the supplement of paper PMC12819154, “High-throughput peptide-centric local stability assay extends protein–ligand identification to membrane proteins, tissues and bacteria” (Nature Structural & Molecular Biology, 2025):
# The chains behind the UniProt entries cited, without tags or fusion partners. Where a name states a change or a piece, a line headed by the entry shows the natural chain unless it says otherwise.
# UniProt Q9NQ31: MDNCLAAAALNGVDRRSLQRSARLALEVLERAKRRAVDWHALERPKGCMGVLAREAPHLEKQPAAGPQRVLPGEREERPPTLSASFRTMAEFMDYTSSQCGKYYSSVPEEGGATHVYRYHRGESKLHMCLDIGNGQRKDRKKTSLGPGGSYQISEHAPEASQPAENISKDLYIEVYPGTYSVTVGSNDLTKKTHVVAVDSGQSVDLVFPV
# UniProt Q9H582: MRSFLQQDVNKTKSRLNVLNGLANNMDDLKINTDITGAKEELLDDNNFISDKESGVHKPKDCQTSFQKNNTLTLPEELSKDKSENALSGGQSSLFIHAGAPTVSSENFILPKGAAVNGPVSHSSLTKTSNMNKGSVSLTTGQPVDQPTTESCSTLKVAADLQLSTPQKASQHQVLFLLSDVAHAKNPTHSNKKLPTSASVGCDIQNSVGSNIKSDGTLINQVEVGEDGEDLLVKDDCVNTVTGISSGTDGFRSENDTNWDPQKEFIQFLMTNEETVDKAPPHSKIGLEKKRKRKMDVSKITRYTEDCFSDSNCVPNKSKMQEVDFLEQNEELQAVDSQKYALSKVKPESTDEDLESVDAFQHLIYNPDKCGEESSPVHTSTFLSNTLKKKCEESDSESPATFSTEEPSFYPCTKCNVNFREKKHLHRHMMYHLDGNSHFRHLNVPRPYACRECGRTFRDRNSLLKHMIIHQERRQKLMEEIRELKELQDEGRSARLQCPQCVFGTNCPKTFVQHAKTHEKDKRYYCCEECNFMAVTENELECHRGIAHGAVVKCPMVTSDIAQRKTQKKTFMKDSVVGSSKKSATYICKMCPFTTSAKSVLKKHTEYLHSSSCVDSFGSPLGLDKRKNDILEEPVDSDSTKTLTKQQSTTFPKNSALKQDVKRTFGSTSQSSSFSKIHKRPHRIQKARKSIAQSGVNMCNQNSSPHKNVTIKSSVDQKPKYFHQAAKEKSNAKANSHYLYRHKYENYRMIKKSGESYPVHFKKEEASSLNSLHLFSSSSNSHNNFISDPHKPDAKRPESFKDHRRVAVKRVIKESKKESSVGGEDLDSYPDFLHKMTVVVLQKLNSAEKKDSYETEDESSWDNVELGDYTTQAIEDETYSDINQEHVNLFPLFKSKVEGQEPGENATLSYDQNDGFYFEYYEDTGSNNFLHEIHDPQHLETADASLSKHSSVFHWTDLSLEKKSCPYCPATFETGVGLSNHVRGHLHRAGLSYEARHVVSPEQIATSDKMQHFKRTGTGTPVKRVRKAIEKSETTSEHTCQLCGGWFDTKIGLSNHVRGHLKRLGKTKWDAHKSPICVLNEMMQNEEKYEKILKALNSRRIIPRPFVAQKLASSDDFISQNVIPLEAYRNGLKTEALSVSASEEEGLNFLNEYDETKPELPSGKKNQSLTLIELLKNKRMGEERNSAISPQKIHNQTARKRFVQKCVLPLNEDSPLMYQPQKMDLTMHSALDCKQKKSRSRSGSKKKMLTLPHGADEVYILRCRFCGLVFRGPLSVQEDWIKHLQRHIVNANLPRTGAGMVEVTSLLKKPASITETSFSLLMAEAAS
# UniProt Q9HBU6: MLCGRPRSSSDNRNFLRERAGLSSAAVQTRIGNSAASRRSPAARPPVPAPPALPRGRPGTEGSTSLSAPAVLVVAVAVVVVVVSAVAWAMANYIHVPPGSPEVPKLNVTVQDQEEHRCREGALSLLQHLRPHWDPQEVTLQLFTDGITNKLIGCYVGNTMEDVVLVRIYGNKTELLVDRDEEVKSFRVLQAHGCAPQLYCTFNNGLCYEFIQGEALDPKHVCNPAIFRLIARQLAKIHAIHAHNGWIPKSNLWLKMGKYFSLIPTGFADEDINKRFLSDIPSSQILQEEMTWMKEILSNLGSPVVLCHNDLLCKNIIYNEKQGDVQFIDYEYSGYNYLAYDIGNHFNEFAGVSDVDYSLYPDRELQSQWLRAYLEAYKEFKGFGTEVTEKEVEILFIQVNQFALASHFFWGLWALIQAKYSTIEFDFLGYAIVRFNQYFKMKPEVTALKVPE
# UniProt Q9H777: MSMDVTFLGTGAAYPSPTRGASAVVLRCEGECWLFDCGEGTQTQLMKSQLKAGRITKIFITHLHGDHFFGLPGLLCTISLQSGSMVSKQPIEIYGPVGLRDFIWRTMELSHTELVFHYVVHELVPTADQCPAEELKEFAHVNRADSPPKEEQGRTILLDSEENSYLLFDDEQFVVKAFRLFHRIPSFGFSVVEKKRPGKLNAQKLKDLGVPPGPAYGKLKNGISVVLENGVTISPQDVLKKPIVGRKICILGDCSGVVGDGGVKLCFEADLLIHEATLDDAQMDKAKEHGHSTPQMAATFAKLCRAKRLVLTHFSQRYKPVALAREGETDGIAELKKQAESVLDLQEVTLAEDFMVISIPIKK
# UniProt Q9NQB0, whole entry: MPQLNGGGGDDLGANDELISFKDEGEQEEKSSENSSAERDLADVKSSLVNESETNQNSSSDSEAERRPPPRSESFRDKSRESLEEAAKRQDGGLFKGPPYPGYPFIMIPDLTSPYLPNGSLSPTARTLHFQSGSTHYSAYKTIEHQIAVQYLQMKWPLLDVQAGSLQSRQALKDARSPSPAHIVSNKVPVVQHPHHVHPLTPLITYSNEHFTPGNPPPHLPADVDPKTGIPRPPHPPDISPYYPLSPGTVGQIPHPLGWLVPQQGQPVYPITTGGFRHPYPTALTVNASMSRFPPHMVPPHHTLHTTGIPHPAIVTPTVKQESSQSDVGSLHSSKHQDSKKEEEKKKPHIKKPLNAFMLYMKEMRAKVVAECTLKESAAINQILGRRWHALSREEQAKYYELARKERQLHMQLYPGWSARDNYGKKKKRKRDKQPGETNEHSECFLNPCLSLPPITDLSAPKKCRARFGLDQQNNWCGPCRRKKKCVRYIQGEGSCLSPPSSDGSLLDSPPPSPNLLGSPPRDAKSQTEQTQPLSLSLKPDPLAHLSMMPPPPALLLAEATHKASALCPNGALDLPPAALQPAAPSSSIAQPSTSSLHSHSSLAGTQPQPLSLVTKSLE
# UniProt Q9H6A9: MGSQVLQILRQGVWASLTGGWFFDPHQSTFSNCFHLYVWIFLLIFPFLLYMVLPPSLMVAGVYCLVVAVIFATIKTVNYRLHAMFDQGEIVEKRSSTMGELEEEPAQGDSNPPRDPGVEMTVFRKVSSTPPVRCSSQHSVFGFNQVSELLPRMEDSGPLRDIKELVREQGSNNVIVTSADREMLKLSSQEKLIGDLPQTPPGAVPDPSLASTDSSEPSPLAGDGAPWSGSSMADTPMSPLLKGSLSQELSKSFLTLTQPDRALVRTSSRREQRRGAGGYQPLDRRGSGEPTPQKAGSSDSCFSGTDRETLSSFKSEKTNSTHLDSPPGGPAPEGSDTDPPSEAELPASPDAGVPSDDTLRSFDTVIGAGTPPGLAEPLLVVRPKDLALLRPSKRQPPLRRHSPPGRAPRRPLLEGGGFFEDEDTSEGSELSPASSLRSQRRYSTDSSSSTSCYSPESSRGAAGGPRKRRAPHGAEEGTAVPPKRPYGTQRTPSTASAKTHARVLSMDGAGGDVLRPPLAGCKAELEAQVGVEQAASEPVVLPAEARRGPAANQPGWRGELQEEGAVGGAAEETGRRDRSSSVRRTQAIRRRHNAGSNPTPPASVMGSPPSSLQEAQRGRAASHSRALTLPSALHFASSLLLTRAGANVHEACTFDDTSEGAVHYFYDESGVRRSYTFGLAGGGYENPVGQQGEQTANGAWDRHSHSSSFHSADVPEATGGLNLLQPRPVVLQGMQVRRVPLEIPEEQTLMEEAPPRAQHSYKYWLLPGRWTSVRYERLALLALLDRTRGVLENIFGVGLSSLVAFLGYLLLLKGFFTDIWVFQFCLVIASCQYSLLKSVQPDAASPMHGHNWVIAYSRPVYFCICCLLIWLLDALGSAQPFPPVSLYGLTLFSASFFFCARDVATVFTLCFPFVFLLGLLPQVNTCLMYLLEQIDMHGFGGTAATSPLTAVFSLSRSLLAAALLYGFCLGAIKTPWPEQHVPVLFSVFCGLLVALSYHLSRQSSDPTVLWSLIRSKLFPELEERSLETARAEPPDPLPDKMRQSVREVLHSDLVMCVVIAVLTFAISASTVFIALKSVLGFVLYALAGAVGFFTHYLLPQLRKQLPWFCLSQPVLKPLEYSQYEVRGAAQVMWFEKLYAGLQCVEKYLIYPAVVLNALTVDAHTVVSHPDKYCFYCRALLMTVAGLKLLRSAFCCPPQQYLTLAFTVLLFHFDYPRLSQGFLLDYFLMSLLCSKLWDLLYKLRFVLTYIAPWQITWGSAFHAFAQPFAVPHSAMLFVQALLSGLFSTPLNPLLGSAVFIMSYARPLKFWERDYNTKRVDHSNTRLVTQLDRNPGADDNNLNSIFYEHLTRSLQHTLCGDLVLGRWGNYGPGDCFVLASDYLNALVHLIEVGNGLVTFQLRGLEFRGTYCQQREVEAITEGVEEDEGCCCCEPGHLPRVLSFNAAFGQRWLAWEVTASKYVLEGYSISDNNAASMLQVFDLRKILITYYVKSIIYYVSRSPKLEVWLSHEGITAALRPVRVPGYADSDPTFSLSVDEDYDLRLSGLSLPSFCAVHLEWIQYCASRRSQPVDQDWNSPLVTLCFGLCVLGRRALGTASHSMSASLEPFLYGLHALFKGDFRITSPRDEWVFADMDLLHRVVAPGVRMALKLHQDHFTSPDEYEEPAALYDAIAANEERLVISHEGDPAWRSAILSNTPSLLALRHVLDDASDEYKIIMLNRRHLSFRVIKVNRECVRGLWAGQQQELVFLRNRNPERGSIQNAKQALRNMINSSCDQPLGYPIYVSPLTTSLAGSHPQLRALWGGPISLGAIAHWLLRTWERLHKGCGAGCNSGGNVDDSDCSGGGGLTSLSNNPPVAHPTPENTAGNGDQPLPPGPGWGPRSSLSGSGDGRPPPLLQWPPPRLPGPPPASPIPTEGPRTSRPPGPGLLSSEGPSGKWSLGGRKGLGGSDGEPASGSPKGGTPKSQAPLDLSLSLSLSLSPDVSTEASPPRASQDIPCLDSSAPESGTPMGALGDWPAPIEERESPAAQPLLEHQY
# UniProt Q9NQ29: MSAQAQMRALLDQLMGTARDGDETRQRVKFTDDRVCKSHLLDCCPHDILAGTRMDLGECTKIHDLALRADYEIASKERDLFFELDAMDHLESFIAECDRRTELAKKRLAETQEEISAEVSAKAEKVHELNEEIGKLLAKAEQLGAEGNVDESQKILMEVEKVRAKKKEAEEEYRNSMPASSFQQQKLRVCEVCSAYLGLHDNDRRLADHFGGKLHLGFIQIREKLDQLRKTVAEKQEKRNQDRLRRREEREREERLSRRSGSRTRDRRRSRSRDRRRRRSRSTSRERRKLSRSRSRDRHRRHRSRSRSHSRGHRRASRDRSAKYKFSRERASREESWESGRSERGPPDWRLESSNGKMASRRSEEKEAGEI
# UniProt Q9NP80: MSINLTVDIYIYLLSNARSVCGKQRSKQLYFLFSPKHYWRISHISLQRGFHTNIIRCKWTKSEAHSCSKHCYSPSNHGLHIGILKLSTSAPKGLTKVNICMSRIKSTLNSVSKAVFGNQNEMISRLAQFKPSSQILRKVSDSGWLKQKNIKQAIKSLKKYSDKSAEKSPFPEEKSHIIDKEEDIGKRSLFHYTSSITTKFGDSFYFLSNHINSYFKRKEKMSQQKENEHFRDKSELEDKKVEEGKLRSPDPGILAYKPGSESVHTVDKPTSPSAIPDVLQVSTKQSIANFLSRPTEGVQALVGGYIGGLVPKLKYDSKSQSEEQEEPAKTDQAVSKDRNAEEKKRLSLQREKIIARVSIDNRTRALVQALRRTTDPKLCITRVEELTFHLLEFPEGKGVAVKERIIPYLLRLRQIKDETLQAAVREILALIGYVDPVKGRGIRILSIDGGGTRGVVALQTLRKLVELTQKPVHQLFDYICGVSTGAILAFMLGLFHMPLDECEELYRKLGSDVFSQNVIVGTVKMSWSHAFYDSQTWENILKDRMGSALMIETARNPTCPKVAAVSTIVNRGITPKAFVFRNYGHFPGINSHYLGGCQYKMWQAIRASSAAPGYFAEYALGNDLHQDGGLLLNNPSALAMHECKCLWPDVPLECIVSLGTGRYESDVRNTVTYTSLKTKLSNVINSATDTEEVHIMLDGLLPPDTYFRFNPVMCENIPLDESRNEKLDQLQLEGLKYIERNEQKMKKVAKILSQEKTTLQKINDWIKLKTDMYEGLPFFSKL
# UniProt Q9HA64: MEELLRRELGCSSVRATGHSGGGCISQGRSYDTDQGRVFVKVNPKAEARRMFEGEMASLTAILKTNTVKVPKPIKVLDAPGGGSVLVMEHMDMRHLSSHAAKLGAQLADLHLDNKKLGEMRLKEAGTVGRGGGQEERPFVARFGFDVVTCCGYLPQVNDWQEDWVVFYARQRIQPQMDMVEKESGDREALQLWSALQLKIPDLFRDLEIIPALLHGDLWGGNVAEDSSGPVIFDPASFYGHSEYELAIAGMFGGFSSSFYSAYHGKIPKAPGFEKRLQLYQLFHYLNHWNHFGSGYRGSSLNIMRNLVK
# This is one part of the list. Most entries show no effect beyond the scatter of the controls.
# Compound: CN[C@@H]1C[C@H]2O[C@@](C)([C@@H]1OC)n1c3ccccc3c3c4c(c5c6ccccc6n2c5c31)C(=O)NC4 [staurosporine]
# Assay: log2 fold change of tryptic peptide abundance, ligand vs vehicle (limited proteolysis) (log2 ratio); higher = more trypsin-susceptible (destabilized)
# Conditions: ligand concentration: 20 uM; sample: K562 cleared lysate; digestion: 4 min, 22 C (HT-PELSA RT4min, Orbitrap Astral)
row,Target,log2 fold change
1,"UniProt Q9NQ31 (peptide sequence: LALEVLER, peptide start residue: 24)",-0.0704
2,"ZNF644 (peptide sequence: TGAGMVEVTSLLK, peptide start residue: 1296) (UniProt Q9H582)",0.362
3,"ETNK1 (peptide sequence: LIGCYVGNTMEDVVLVR, peptide start residue: 151) (UniProt Q9HBU6)",-0.354
4,"ELAC1 (peptide sequence: DLGVPPGPAYGK, peptide start residue: 207) (UniProt Q9H777)",0.313
5,"UniProt Q9NQB0 (peptide sequence: QLHMQLYPGWSAR, peptide start residue: 357)",-0.158
6,"UniProt Q9HCM9 (peptide sequence: QLGSMVEIAK, peptide start residue: 83)",0.294
7,"UniProt Q9HCH0 (peptide sequence: RPGDPGSTPLR, peptide start residue: 652)",0.452
8,"UniProt Q9H6A9 (peptide sequence: GELQEEGAVGGAAEETGRR, peptide start residue: 558)",-0.00167
9,"FANCF (peptide sequence: YHLVQQLFPGPGVR, peptide start residue: 109) (UniProt Q9NPI8)",0.262
10,"UniProt Q9H8K7 (peptide sequence: HYDSGER, peptide start residue: 433)",-0.77
11,"LUC7L (peptide sequence: VCEVCSAYLGLHDNDR, peptide start residue: 189) (UniProt Q9NQ29)",-0.195
12,"PNPLA8 (peptide sequence: GVVALQTLR, peptide start residue: 454) (UniProt Q9NP80)",0.17
13,"FN3KRP (peptide sequence: SYDTDQGR, peptide start residue: 30) (UniProt Q9HA64)",-0.376
14,"UniProt Q9H816 (peptide sequence: AFVAALKPCQVVPIVSR, peptide start residue: 284)",0.425
15,"PLEKHA2 (peptide sequence: THECLVK, peptide start residue: 250) (UniProt Q9HB19)",-0.485
16,"UniProt Q9H8W3 (peptide sequence: AVACHNFVK, peptide start residue: 189)",-0.438

# Given as tab-separated lines: part of the list above.
row	Target	log2 fold change
1	UniProt Q9NQ31 (peptide sequence: LALEVLER, peptide start residue: 24)	-0.0704
15	PLEKHA2 (peptide sequence: THECLVK, peptide start residue: 250) (UniProt Q9HB19)	-0.485
